# Data from PubChem BioAssay AID2417 (National Center for Advancing Translational Sciences (NCATS), 2010).
# Among all 140,000 compounds or so, about 4,300 (3.1%) were called active. Inconclusive results, whose numbers are uncertain, are shown with a selection of clear calls.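 The calls were made as follows: active = readout at or below -70, meaning at least 70% loss of cells showing the perinucleolar compartment, a nuclear body marking cancer cells; inconclusive = readout between -30 and a set limit; inactive = the rest.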
# Assay: High Content Assay for Compounds that inhibit the Assembly of the Perinucleolar Compartment;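 also: plate controls were DMSO wells for no effect and camptothecin positive control wells for full effect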
# Conditions: PC3M PTB-GFP, PNC prevalence imaging, 16 h; at 10 µM; hits give low values
# Outline: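 PC3M cells stably expressing PTB-GFP, 750–1000 cells/well, treated 16 h at 37 °C with compound (23 nl of library stock), in duplicate. After paraformaldehyde fixation and Hoechst stain, imaged at 20x; PNC prevalence scored by image analysis.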
row,Compound,"activity change (PNC), negative = inhibition"
1,CC(C)CC(=O)Nc1ccc(-c2nc3ccccc3c(=O)[nH]2)cc1,inconclusive: -48.3%
2,COc1cc(N/C=C(\C(C)=O)c2ccccc2)cc(OC)c1,inconclusive: -60.2%
3,Nc1sc2c(c1C(=O)NC1CCS(=O)(=O)C1)CCC2 (stereo not drawn),inactive: 7.13%
4,Cc1cc(=O)oc2cc(OCC(=O)NCCc3nc4ccccc4[nH]3)ccc12,active: -86.6%
5,Nc1c(O)ccc2c1C(=O)c1ccccc1C2=O,inactive: -21.5%
6,CCOc1ccccc1NC(=O)CCCN1C(=S)NC(C)(C)CC1C (stereo not drawn),inconclusive: -30.9%
7,CC[C@H](C)[C@@H](NC(=O)O[C@@H]1C(=O)c2cc(Br)ccc2O[C@H]1c1ccc2c(c1)OCO2)C(=O)OC,inactive: 35.6%
8,O=C(O)c1cccc(NC(=O)c2cn(-c3ccccc3)nc2-c2cc3ccccc3o2)c1,inconclusive: -49.7%
9,O=C(Nc1nc(-c2cccs2)c(C(=O)C(F)(F)F)s1)c1ccccc1,inactive: 11.9%
10,Cc1c(Cl)c(C(=O)NNC(=S)Nc2ccccc2)nn1C,inconclusive: -53.3%
11,O=C(CSc1nnc(C2CC2)n1Cc1ccccc1)c1ccc(S(=O)(=O)N2CCOCC2)cc1,inconclusive: -58.7%
12,CCOc1ccc(N(CC(=O)Nc2cccc(OC)c2)S(=O)(=O)c2c(C)noc2C)cc1,inconclusive: -42.3%
13,COc1ccc(OC)c(-c2c(=O)n(OCc3ccccc3Br)c3ccccc3[n+]2[O-])c1,active: -113%
14,CCCc1[nH]n(-c2nc3ccccc3s2)c(=O)c1C=NCC1CCCO1 (stereo not drawn),inactive: -19.9%
15,CN(C1CCCCC1)S(=O)(=O)c1ccc(-n2cnnn2)cc1,inconclusive: -30.6%
16,CC(C(=O)NCC1CCCCC1)N1CCN(S(=O)(=O)/C=C/c2ccccc2)CC1 (stereo not drawn),inconclusive: -67.9%
17,Cc1ccc(-c2cc(-c3ccccc3)nc(Cl)n2)cc1,inactive: 71.6%
18,CN(C(=O)c1ccccn1)c1nnc(-c2ccccn2)s1,inconclusive: -59.3%
19,CCOC(=O)c1ccc(Nc2nc(=O)c3cccnc3s2)cc1,inconclusive: -74.4%
20,COCCCNC(=O)Cn1nnc(-c2ccccc2NC(=O)c2ccccc2F)n1,inconclusive: -30.1%
21,Cc1ccccc1C(=O)NNC(=S)NC(=O)c1ccccc1,inconclusive: -32.3%
22,c1ccc2c(c1)oc1c(NCC3CCCO3)ncnc12 (stereo not drawn),inconclusive: -45.2%

# Single values from the entries so far:
# Value of CCCc1[nH]n(-c2nc3ccccc3s2)c(=O)c1C=NCC1CCCO1 (stereo not drawn) under activity change (PNC), negative = inhibition: inactive: -19.9%
# Value of Nc1sc2c(c1C(=O)NC1CCS(=O)(=O)C1)CCC2 (stereo not drawn) under activity change (PNC), negative = inhibition: inactive: 7.13%
# Value of COc1ccc(OC)c(-c2c(=O)n(OCc3ccccc3Br)c3ccccc3[n+]2[O-])c1 under activity change (PNC), negative = inhibition: active: -113%

# Following part

row,Compound,"activity change (PNC), negative = inhibition"
1,CCN(C(=O)CN(C)Cc1cccc(Cl)c1Cl)c1c(N)n(Cc2ccccc2)c(=O)[nH]c1=O,active: -98.5%
2,COC(=O)c1c(NC(=S)NC(=O)c2ccco2)sc2c1CCCC2,inactive: -11.9%
3,S=C(NCCCN1CCOCC1)Nc1ccc(Cl)cc1,inconclusive: -38.1%
4,Cc1cc(C(=O)N/N=C/c2cc(Cl)cc([N+](=O)[O-])c2O)c2ccccc2n1,inconclusive: -44.4%
5,Cn1c(SCC(=O)c2ccccc2)nnc1-c1cccc(N)c1,inactive: 43.5%
6,CCC(C)(C)n1nnnc1C(c1ccc(C)cc1)N1CCC(C)CC1 (stereo not drawn),inconclusive: -35.1%
7,Oc1ccc(-c2nc3cnccn3c2Nc2ccc3c(c2)OCCO3)cc1,inactive: -19.1%
8,CC(C)(CNS(=O)(=O)c1ccc(Cl)cc1)N1CCCCC1,inconclusive: -31.8%
9,CCCn1c(N)c(C(c2ccc(C(=O)OC)cc2)N2CCN(c3ccccc3)CC2)c(=O)[nH]c1=O (stereo not drawn),inactive: -17.7%
10,O=C(Nc1ccon1)c1sc2cc(F)ccc2c1Cl,active: -100%
11,COc1ccc(OC)c(/C=N\NC(=O)c2ccc(=O)n(C)c2)c1,inactive: -17.4%
12,O=S(=O)(N[C@@H]1C[C@H]2CC[C@@H]1C2)c1cccs1,inconclusive: -42.1%
13,CCOC(=O)c1c(C)nc(SCC(N)=O)c(C#N)c1-c1ccccc1,active: -114%
14,O=c1c2ccccc2nc(/C=C/c2ccccc2)n1CCc1ccccc1,inconclusive: -48.8%
15,CSCCC(NC(N)=O)C(=O)NCC1CCCCC1 (stereo not drawn),inconclusive: -34.4%
16,O=C(c1ccccc1)N1CCC(c2nc(-c3ccc(S(=O)(=O)NCC4CCCO4)cc3)no2)CC1 (stereo not drawn),inconclusive: -47.1%
17,CCNC(=O)c1oc2c(c1C)C(=O)CC(C)(C)C2,inactive: 44.2%
18,CC(C)OC(=O)CC(NC(=O)OC(C)(C)C)c1ccccc1 (stereo not drawn),inconclusive: -66.4%
19,O=C(Nc1ncnc2sc3c(c12)CCC3)c1ccco1,inconclusive: -78.3%
20,O=C(CN1CCN(Cc2ccc(Cl)cc2)CC1)N/N=C/c1c[nH]c2ccccc12,inactive: -27%
21,CC(C)Cn1c(SCC(=O)N2CCN(S(=O)(=O)c3ccccc3)CC2)nc2ccccc21,inactive: 6.59%
22,O=C(COC(=O)c1ccccn1)NCc1ccccc1,inconclusive: -70%

row,Compound,"activity change (PNC), negative = inhibition"
1,O=C(OCC(=O)C12CC3CC(CC(C3)C1)C2)c1cccnc1Cl,inactive: -3.26%
2,COc1ccccc1N1CCN(C(=O)c2cc(-c3ccco3)on2)CC1,inconclusive: -30.6%
3,O=S(=O)(c1ccc(F)cc1)n1ccc(-c2cccc(OCc3c(F)cccc3Cl)c2)n1,inconclusive: -40.5%
4,O=C(CSc1c2c(nc3ccc(Cl)cc13)CCCC2)NCc1ccco1,inconclusive: -31.5%
5,O=c1c2ccccc2nc(SCc2nc3ccccc3s2)n1Cc1ccco1,active: -84.7%
6,CC1CCCCN1C(=O)c1cc(-c2ccc(Cl)c(Cl)c2)on1 (stereo not drawn),inactive: -7.58%
7,CCOC(=O)Cn1c(=O)c2c(nc(N3CCCCC3)n2Cc2ccccc2)n(C)c1=O,inactive: -22.8%
8,Cc1cccc(N2CCN(C(=O)c3ccc4ncsc4c3)CC2)c1C,inconclusive: -50.2%
9,O=c1c2ccccc2nc(/C=C/c2ccc([N+](=O)[O-])cc2)n1CCCO,inconclusive: -57.9%
10,O=C(NCc1cccnc1)C1CCCN(S(=O)(=O)c2ccccc2)C1 (stereo not drawn),inconclusive: -38%
11,Cc1cccc(CC(Cc2nc3ccccc3[nH]2)c2nc3ccccc3[nH]2)c1 (stereo not drawn),inconclusive: -59.4%
12,Cc1nc(C)c(-c2csc(NCc3ccccc3)n2)s1,inactive: 16.6%
13,CN(Cc1ccccc1F)c1nc(-c2cccs2)nc2ccccc12,inactive: -18.3%
14,CCC(=O)Nc1ccc(N2CCCCC2)cc1,inactive: 30.5%
15,C[C@@H]1NC(=O)c2cc([N+](=O)[O-])cc(I)c2OCC[C@@H](C(N)=O)NC(=O)[C@H](CCCCN)NC1=O,inconclusive: -32.2%
16,Cn1c(N2CCOCC2)c(/C=N/OC(=O)c2ccc(F)cc2)c2ccccc21,active: -99.1%
17,COc1ccc(CCn2c(=O)[nH]c3cc(C(=O)NCCN4CCOCC4)ccc3c2=O)cc1OC,inconclusive: -41.9%
18,CCn1c(=O)cc(SCC(=O)N2CCN(C3CCCCC3)CC2)c2ccccc21,inactive: -24.4%
19,CC(C)(C)Nc1nc(OCC(F)(F)F)nc(OCC(F)(F)F)n1,active: -107%
20,CC(C)CCn1c(=O)c2ccccc2n2c(CN(C)Cc3ccccc3)nnc12,inactive: 20.5%
21,Cc1nc(NC(=O)c2cc3c(C)nn(-c4ccccc4)c3s2)sc1C(=O)Nc1ccccc1,inconclusive: -32.4%
22,Cc1[nH]nc2c1C1(C(=O)Nc3ccc([N+](=O)[O-])cc31)C(C#N)=C(N)O2 (stereo not drawn),inactive: 8.25%

row,Compound,"activity change (PNC), negative = inhibition"
1,COc1ccc(CNC(=S)Nc2cc(C)ccc2C)cc1,inconclusive: -50.9%
2,COc1ccc(CCNCCC(=O)Nc2c(C)cc(C)cc2C)cc1OC,inconclusive: -32%
3,Cc1ccc(Cc2nnc3n(-c4ccccc4)nc(C(=O)c4ccccc4)n3c2=O)cc1,inactive: -15.5%
4,O=C(Nc1ccc(S(=O)(=O)C(F)F)cc1)c1cccc(S(=O)(=O)N2CCOCC2)c1,inactive: -22.7%
5,COc1cc(-c2cc(C(=O)Nc3ccc(S(=O)(=O)NCc4ccco4)cc3)c3ccccc3n2)cc(OC)c1OC,inactive: -27.3%
6,CN(C)c1cc[n+](CCC(=O)Nc2cccc([N+](=O)[O-])c2N)cc1,inconclusive: -55.1%
7,COc1ccc(NC(=O)CSc2nc3c(c(=O)n2-c2ccc(F)cc2)SCC3)c(OC)c1,inconclusive: -30.7%
8,CC(=O)NC1=C(NC2CCS(=O)(=O)C2)C(=O)c2ccccc2C1=O (stereo not drawn),inactive: -28.4%
9,CC(C)OCCCNC(=O)CCSc1ccc(Cl)cc1,inactive: -16.2%
10,COc1ccc(-n2c(CNc3ccc(C)cc3)nnc2SCc2ccccc2)cc1,inconclusive: -53.9%
11,CCCC(C(=O)NC1CCCC1)N(C(=O)Cn1nnc(-c2ccc(C)o2)n1)C1CCCC1 (stereo not drawn),inconclusive: -63.3%
12,CCc1ccc(NC(=O)CSCCO)cc1,inactive: 31.5%
13,COc1ccc(S(=O)(=O)Nc2cccc(NC(C)=O)c2)cc1,inconclusive: -45.1%
14,O=C(COC(=O)C1=Cc2ccccc2OC1)NC1CCCC1,active: -83.5%
15,C=CCn1c(SCC(=O)c2ccc(Br)cc2)nnc1C(C)NC(=O)Cc1ccc(OC)cc1 (stereo not drawn),inactive: 11.4%
16,O=C(CN1C(=O)c2cccc3cccc(c23)C1=O)N1CCN(Cc2ccc3c(c2)OCO3)CC1,inactive: 42.6%
17,CCc1nc(NCCCN2CCOCC2)c2oc3ccccc3c2n1,inactive: 20.1%
18,CNc1oc(C)nc1S(=O)(=O)c1ccccc1,inconclusive: -52%
19,COc1ccc(NC(=O)Cn2nnc(-c3ccccc3F)n2)cc1,inactive: -12.2%
20,CCc1cc2c(=O)c(-c3nc4ccccc4n3C)c(C(C)C)oc2c(CN2CCN(C)CC2)c1O,active: -104%
21,Cc1cc(N2CCCCCC2)nc(-c2ccccc2O)n1,inconclusive: -32.2%
22,CC1Cc2ccccc2N1S(=O)(=O)c1cccc2nsnc12 (stereo not drawn),inconclusive: -44.9%
